± gives the standard deviation of the averaged measurements. Some of the results follow. This data set is noisy: repeats of one test often differ as much as different tests do.
The molecules below were run on IL-6-GFP PC-9 (assay: IL-6-GFP fluorescence relative to DMSO control (fraction of control); higher = more IL-6-GFP expression). Details: compound concentration: 10 uM; treatment time: 48 h.
Description: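 IL-6-GFP-overexpressing PC-9 and PC-9GR EGFR-mutant lung cancer cells (3000 cells/well, 96-well) were treated for 48 h with each compound of the Selleck L2000 library at 10 uM. IL-6-GFP fluorescence was read on a high-content screening system, and viability by CCK-8 absorbance on a parallel plate set. Each value was normalised as compound well / DMSO control well; two independent replicates.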
`COc1cc2ncnc(Nc3ccc(F)c(Cl)c3)c2cc1NC(=O)/C=C/CN1CCCCC1` gave an IL-6-GFP fluorescence of 0.927 ± 0.02. `COc1ccc2cc1Oc1ccc(cc1)CC1c3cc(c(OC)cc3CCN1C)Oc1c(O)c(OC)cc3c1C(C2)N(C)CC3` (single isomer, unassigned; (+)) [(+)-Fangchinoline] was tested, and the IL-6-GFP fluorescence was 0.824 ± 0.097. `S=P(N1CC1)(N1CC1)N1CC1` [Thiotepa] was tested, and the IL-6-GFP fluorescence was 0.835 ± 0.094. With `CC1(C)CCC(CN2CCN(c3ccc(C(=O)NS(=O)(=O)c4ccc(NCC5CCOCC5)c([N+](=O)[O-])c4)c(Oc4cnc5[nH]ccc5c4)c3)CC2)=C(c2ccc(Cl)cc2)C1` [Venetoclax (ABT-199, GDC-0199)] the IL-6-GFP fluorescence was 0.84152 ± 0.00068. In the case of `Cl.Cl.O=C(O)COCCN1CCN(C(c2ccccc2)c2ccc(Cl)cc2)CC1` (configuration not stated) [Cetirizine DiHCl], the IL-6-GFP fluorescence is reported as 0.711 ± 0.38. Work on `COc1cc(Nc2c(C#N)cnc3cc(OCCCN4CCN(C)CC4)c(OC)cc23)c(Cl)cc1Cl` [Bosutinib (SKI-606)] yielded an IL-6-GFP fluorescence of 0.987 ± 0.087. In the case of `CCCCCCCCCCCC1=C(O)C(=O)C=C(O)C1=O` [Embelin], the IL-6-GFP fluorescence is reported as 0.681 ± 0.027. With `Cc1cn(-c2cc(NC(=O)c3ccc(C)c(Nc4nccc(-c5cccnc5)n4)c3)cc(C(F)(F)F)c2)cn1` [Nilotinib (AMN-107)] the IL-6-GFP fluorescence was 0.969 ± 0.1. `CC(C)C(=O)OCC(=O)C12OC(C3CCCCC3)OC1CC1C3CCC4=CC(=O)C=CC4(C)C3C(O)CC12C` (configuration not stated) [Ciclesonide] gave an IL-6-GFP fluorescence of 1.07 ± 0.29. `Cn1nnc2c(C(N)=O)ncn2c1=O` [Temozolomide] was tested, and the IL-6-GFP fluorescence was 0.891 ± 0.15. Molecule `CN(C)C(=O)c1cc2cnc(Nc3ccc(N4CCNCC4)cn3)nc2n1C1CCCC1` [Ribociclib (LEE011)] has an IL-6-GFP fluorescence of 1.05 ± 0.13. `Nc1ccn(C2OC(CO)C(O)C2(F)F)c(=O)n1` (configuration not stated) [Gemcitabine] gave an IL-6-GFP fluorescence of 1.2 ± 0.11.
